Test results from the supplement of paper PMC6411743.
± gives the standard deviation of the averaged measurements. This is a selection; strong and weak results do not stand in their true shares.

What was measured:
Experiment in all cases: NP40-soluble protein abundance relative to vehicle (solubility fold change) (ratio); higher = more soluble protein in presence of ATP
UniProt Q9NPJ3 = biological target: T1, UniProt Q9NPJ3
T1 sequence (whole entry): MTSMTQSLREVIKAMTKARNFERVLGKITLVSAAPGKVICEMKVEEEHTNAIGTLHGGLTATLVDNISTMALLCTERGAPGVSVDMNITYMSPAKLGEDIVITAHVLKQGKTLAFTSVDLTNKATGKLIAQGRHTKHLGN
Outline: (§1)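 Values are fold changes against the detergent-processed vehicle, based on vsn-normalised intensities. Jurkat crude lysate was treated at eight concentrations from 0.1 to 10 mM (10 min at room temperature, then 3 min at 37 °C), solubilised with 0.8% NP40 and benzonase, ultracentrifuged and analysed by TMT-labelled LC-MS/MS over three independent experiments.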

[1] = biological target: T2, UniProt Q9NQ66 and related entries
T2 sequence (whole entry): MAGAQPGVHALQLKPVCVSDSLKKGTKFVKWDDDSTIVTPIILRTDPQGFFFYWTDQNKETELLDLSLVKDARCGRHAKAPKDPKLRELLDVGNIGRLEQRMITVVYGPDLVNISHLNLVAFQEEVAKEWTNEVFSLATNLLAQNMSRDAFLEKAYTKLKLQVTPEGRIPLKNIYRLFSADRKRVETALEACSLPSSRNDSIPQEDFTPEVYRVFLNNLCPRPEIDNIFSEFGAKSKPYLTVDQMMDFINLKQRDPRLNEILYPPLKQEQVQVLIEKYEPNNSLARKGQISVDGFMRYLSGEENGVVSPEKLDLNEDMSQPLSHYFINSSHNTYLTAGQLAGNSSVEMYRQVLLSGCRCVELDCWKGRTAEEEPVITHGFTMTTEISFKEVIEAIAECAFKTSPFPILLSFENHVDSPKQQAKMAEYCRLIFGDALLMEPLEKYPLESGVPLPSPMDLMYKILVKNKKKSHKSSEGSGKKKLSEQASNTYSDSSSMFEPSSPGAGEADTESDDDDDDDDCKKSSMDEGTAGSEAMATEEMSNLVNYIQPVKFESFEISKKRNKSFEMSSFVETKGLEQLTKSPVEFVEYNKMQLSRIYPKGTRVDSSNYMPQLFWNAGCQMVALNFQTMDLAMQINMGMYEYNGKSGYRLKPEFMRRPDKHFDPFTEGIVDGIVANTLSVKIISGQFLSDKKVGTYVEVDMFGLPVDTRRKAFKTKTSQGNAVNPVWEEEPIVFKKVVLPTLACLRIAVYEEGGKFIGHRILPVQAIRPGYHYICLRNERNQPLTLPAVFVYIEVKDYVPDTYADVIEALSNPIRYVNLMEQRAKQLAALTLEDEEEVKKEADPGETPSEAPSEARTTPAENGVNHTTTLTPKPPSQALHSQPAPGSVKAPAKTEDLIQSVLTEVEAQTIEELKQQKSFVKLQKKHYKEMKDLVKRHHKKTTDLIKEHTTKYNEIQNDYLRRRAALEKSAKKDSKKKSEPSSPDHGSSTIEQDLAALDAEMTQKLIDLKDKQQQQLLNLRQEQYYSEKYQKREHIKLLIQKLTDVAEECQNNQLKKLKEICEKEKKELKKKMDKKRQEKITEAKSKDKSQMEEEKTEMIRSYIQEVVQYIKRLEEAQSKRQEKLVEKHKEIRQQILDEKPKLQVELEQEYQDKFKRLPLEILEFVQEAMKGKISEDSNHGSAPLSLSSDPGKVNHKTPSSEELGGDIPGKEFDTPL
Outline: as §1

[2] = biological target: T3, UniProt Q9NQ86 and related entries
T3 sequence (whole entry): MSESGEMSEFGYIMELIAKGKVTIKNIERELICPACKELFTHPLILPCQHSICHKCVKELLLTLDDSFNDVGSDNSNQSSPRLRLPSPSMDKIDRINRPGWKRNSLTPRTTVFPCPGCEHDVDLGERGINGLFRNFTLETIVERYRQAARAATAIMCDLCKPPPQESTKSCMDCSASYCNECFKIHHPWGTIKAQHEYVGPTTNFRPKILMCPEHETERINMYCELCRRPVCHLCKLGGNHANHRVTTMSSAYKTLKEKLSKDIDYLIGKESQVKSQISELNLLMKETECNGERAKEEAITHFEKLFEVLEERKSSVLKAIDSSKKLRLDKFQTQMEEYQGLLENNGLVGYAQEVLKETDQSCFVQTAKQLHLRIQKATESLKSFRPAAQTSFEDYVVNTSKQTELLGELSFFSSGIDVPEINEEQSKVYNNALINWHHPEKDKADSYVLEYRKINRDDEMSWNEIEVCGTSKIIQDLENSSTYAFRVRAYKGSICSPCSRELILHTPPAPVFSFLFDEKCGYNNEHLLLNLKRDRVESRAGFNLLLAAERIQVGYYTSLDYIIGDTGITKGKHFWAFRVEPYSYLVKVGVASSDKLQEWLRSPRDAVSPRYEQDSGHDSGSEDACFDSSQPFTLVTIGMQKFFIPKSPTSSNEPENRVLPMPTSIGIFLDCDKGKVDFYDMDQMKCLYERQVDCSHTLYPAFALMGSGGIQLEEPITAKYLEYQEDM
Outline: as §1

[3] = biological target: T4, UniProt Q9NQC7 and related entries
T4 sequence (whole entry): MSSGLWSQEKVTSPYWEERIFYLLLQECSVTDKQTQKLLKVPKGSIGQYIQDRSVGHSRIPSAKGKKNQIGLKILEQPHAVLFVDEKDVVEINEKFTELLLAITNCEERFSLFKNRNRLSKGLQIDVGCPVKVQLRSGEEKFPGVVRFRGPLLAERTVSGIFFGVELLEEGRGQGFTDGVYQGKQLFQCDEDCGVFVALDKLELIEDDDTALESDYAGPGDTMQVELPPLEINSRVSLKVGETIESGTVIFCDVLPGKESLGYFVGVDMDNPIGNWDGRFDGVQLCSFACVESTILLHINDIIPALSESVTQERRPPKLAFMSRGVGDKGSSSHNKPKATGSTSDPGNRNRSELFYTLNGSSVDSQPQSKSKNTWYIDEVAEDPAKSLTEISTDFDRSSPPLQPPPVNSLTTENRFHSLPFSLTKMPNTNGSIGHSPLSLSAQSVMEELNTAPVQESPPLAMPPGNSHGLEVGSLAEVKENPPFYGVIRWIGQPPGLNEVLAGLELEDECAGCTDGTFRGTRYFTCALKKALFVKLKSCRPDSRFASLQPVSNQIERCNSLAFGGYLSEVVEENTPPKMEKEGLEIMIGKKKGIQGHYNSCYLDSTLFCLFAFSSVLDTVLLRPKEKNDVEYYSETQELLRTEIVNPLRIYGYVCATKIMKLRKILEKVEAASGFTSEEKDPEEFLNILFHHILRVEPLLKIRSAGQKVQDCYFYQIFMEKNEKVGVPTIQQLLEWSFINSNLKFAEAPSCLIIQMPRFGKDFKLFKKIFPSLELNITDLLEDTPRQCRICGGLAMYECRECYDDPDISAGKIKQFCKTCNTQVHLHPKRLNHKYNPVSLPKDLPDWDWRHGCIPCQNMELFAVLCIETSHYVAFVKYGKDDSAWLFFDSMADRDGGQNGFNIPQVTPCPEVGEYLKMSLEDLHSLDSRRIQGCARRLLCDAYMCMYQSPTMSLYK
Outline: as §1

[4] = biological target: T5, UniProt Q9NSI8 and related entries
T5 sequence (whole entry): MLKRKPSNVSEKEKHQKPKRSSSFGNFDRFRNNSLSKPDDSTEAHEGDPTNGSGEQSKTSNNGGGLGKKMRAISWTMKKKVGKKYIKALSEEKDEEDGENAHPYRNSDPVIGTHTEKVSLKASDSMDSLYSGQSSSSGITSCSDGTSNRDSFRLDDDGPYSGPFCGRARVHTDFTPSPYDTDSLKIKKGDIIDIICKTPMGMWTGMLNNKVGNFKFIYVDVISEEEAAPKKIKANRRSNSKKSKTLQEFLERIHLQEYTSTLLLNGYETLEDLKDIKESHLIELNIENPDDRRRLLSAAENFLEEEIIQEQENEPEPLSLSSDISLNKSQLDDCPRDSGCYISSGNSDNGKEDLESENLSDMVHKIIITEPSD
Outline: as §1

UniProt Q9NUS5 = biological target: T6, UniProt Q9NUS5
T6 sequence (whole entry): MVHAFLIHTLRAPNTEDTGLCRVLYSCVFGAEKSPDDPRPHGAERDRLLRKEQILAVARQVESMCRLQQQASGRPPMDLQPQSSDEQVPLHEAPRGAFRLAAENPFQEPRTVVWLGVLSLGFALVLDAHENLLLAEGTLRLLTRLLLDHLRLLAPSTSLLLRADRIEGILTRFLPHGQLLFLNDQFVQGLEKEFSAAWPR
Outline: as §1

## Nc1ncnc2c1ncn2[C@@H]1O[C@H](COP(=O)(O)OP(=O)(O)OP(=O)(O)O)[C@@H](O)[C@H]1O [adenosine triphosphate]
UniProt Q9NPJ3; concentration: 6mM
  NP40-soluble protein abundance: 0.944 ± 0.08
UniProt Q9NPJ3; concentration: 8mM
  NP40-soluble protein abundance: 0.928 ± 0.07
UniProt Q9NPJ3; concentration: 10mM
  NP40-soluble protein abundance: 0.928 ± 0.046
[1]; concentration: 1mM
  NP40-soluble protein abundance: 1.01 ± 0.052
[1]; concentration: 2mM
  NP40-soluble protein abundance: 1.01 ± 0.013
[1]; concentration: 4mM
  NP40-soluble protein abundance: 1.02 ± 0.056
[1]; concentration: 6mM
  NP40-soluble protein abundance: 0.956 ± 0.074
[1]; concentration: 8mM
  NP40-soluble protein abundance: 0.95 ± 0.066
[1]; concentration: 10mM
  NP40-soluble protein abundance: 0.946 ± 0.043
[2]; concentration: 1mM
  NP40-soluble protein abundance: 0.995 ± 0.043
[2]; concentration: 2mM
  NP40-soluble protein abundance: 1.04 ± 0.061
[2]; concentration: 4mM
  NP40-soluble protein abundance: 1.02 ± 0.065
[2]; concentration: 6mM
  NP40-soluble protein abundance: 0.94 ± 0.04
[2]; concentration: 8mM
  NP40-soluble protein abundance: 1 ± 0.056
[2]; concentration: 10mM
  NP40-soluble protein abundance: 1.02 ± 0.032
[3]; concentration: 1mM
  NP40-soluble protein abundance: 0.955 ± 0.015
[3]; concentration: 2mM
  NP40-soluble protein abundance: 0.995 ± 0.1
[3]; concentration: 4mM
  NP40-soluble protein abundance: 1.01 ± 0.061
[3]; concentration: 6mM
  NP40-soluble protein abundance: 0.954 ± 0.072
[3]; concentration: 8mM
  NP40-soluble protein abundance: 1.01 ± 0.099
[3]; concentration: 10mM
  NP40-soluble protein abundance: 0.973 ± 0.048
[4]; concentration: 1mM
  NP40-soluble protein abundance: 0.942 ± 0.12
[4]; concentration: 2mM
  NP40-soluble protein abundance: 0.956 ± 0.13
[4]; concentration: 4mM
  NP40-soluble protein abundance: 0.972 ± 0.15
[4]; concentration: 6mM
  NP40-soluble protein abundance: 0.967 ± 0.13
[4]; concentration: 8mM
  NP40-soluble protein abundance: 0.924 ± 0.11
[4]; concentration: 10mM
  NP40-soluble protein abundance: 0.926 ± 0.093
UniProt Q9NUS5; concentration: 1mM
  NP40-soluble protein abundance: 0.987 ± 0.028
UniProt Q9NUS5; concentration: 2mM
  NP40-soluble protein abundance: 0.969 ± 0.032
UniProt Q9NUS5; concentration: 4mM
  NP40-soluble protein abundance: 0.947 ± 0.047
UniProt Q9NUS5; concentration: 6mM
  NP40-soluble protein abundance: 0.9792 ± 0.0048
